{"source": "paper PMC12561408", "about": "“AI‐Driven De Novo Design of Ultra Long‐Acting GLP‐1 Receptor Agonists” (Advanced Science, 2025)", "conditions": "rat, in vivo, 0.05 mg/kg", "procedure": "B) half‐life (T1/2). C) the maximum plasma concentration (Cmax). […] F) time to Maximum Concentration (Tmax). […] Data were analyzed with the two‐sided Student's unpaired t test. ^* p < 0.05, ^** p < 0.01, ^*** p < 0.001.\nPlasma samples were analyzed using LC‐MS/MS (Waters XEVO TQ‐XS), and pharmacokinetic parameters such as T1/2, Cmax, Tmax, AUC0‐t, and MRT0‐t were calculated using WinNonlin. The sample preparation and detailed information of LC‐MS/MS are shown in Table S5 (Supporting Information)."}
{"smiles": "CC[C@H](C)[C@H](NC(=O)[C@H](Cc1ccccc1)NC(=O)[C@H](CCC(=O)O)NC(=O)[C@H](CCCCNC(=O)COCCOCCNC(=O)COCCOCCNC(=O)CC[C@H](NC(=O)CCCCCCCCCCCCCCCCC(=O)O)C(=O)O)NC(=O)[C@H](C)NC(=O)[C@H](C)NC(=O)[C@H](CCC(N)=O)NC(=O)CNC(=O)[C@H](CCC(=O)O)NC(=O)[C@H](CC(C)C)NC(=O)[C@H](Cc1ccc(O)cc1)NC(=O)[C@H](CO)NC(=O)[C@H](CO)NC(=O)[C@@H](NC(=O)[C@H](CC(=O)O)NC(=O)[C@H](CO)NC(=O)[C@@H](NC(=O)[C@H](Cc1ccccc1)NC(=O)[C@@H](NC(=O)CNC(=O)[C@H](CCC(=O)O)NC(=O)C(C)(C)NC(=O)[C@@H](N)Cc1cnc[nH]1)[C@@H](C)O)[C@@H](C)O)C(C)C)C(=O)N[C@@H](C)C(=O)N[C@@H](Cc1c[nH]c2ccccc12)C(=O)N[C@@H](CC(C)C)C(=O)N[C@H](C(=O)N[C@@H](CCCNC(=N)N)C(=O)NCC(=O)N[C@@H](CCCNC(=N)N)C(=O)NCC(=O)O)C(C)C", "note": "[Semaglutide]", "values": [{"measurement": "MRT0-t (0–168 h)", "value": 14.21, "unit": "h"}]}
